No constants are given. Whether binding was seen depends on the method and setting. Some entries that bind do so weakly or less than the wild type.
Target: HER2 on SKBR3 cells (human, UniProt P04626 23-1255)
Assay: flow cytometry on SKBR3 cells, periplasmic extract, anti-myc detection

binding: binds
B1: 2A3 (VHH)
VHH: EVQLVESGGGLVQAGGSLNLSCVASGIPFSTRTMAWYRQAPGKPRDWVATIRNGAPVYADSVKGRFTVSRDNAKNTLYLQMNSLKPEDTATYLCRDVNGDIWGQGTQVTVSS

Source: US20110028695A1 (published 2011)
